Values quoted from earlier work as cited in US20140142140A1, “PHARMACEUTICAL COMPOSITION FOR NEUROLOGICAL DISORDERS” (priority 2011, published 2014).
For at least one compound, name, drawing or mass did not settle the structure.

Test system: mood stabilisation or epileptic symptoms or events
Conditions: per day; cited from earlier work

NC(=O)c1cn(Cc2c(F)cccc2F)nn1 [Rufinamide, 1-[(2,6-difluorophenyl)methyl]triazole-4-carboxamide]
Minimum typical dose/day effective for mood stabilisation or treatment of epileptic symptoms or events: 400 mg
